This is one part of the list. Many values rest on one well or one pass, so single values are uncertain.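 Cells were imaged in 1,536-well plates, and nuclei stained with an antibody against cleaved PARP were counted against all DNA-stained nuclei to give the apoptosis fraction. Screening doses were chosen to leave most cells alive, and resting and induced cleaved-PARP levels differ strongly between cell lines.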
Key:
Experiment in all cases: cleaved PARP positive nuclei fraction relative to DMSO control; melanoma cells; higher = more apoptosis
Conditions in all cases: library dose: low library concentration; 72 h
501Mel = system: 501Mel
A101D = system: A101D
A2058 = system: A2058
A375 = system: A375
C32 = system: C32
CBRC008 = system: CBRC008 (line from a melanoma biopsy)
CBRC014 = system: CBRC014 (line from a melanoma biopsy)
CBRC016 = system: CBRC016 (line from a melanoma biopsy)
CBRC017 = system: CBRC017 (line from a melanoma biopsy)
CBRC034 = system: CBRC034 (line from a melanoma biopsy)
COLO792 = system: COLO792
COLO800 = system: COLO800
COLO829 = system: COLO829
G361 = system: G361
IPC-298 = system: IPC-298
IST-MEL1 = system: IST-MEL1
LB2518-MEL = system: LB2518-MEL
LOXIMVI = system: LOXIMVI
MEL-HO = system: MEL-HO

SMILES | cleaved PARP positive nuclei fraction (501Mel) [%] | cleaved PARP positive nuclei fraction (A101D) [%] | cleaved PARP positive nuclei fraction (A2058) [%] | cleaved PARP positive nuclei fraction (A375) [%] | cleaved PARP positive nuclei fraction (C32) [%] | cleaved PARP positive nuclei fraction (CBRC008) [%] | cleaved PARP positive nuclei fraction (CBRC014) [%] | cleaved PARP positive nuclei fraction (CBRC016) [%] | cleaved PARP positive nuclei fraction (CBRC017) [%] | cleaved PARP positive nuclei fraction (CBRC034) [%] | cleaved PARP positive nuclei fraction (COLO792) [%] | cleaved PARP positive nuclei fraction (COLO800) [%] | cleaved PARP positive nuclei fraction (COLO829) [%] | cleaved PARP positive nuclei fraction (G361) [%] | cleaved PARP positive nuclei fraction (IPC-298) [%] | cleaved PARP positive nuclei fraction (IST-MEL1) [%] | cleaved PARP positive nuclei fraction (LB2518-MEL) [%] | cleaved PARP positive nuclei fraction (LOXIMVI) [%] | cleaved PARP positive nuclei fraction (MEL-HO) [%]
Cn1sc(=O)n(Cc2ccccc2)c1=O + CN(c1ncccc1CNc1nc(Nc2ccc3c(c2)CC(=O)N3)ncc1C(F)(F)F)S(C)(=O)=O [PF562271] (first compound 0.4 µM, partner dose 0.08 µM) | 87.6 | 48.9 | 133 | 107 | 153 | 65.2 | 170 | 171 | 217 | 40.2 | 104 | 63.9 | 113 | 112 | 123 | 29.7 | 105 | 185 | 244
Cn1cnc2c(F)c(Nc3ccc(Br)cc3Cl)c(C(=O)NOCCO)cc21 [selumetinib] + CC(C)C[C@H](NC(=O)[C@H](Cc1ccccc1)NC(=O)c1cnccn1)B(O)O [Bortezomib] (first compound 0.015 µM, partner dose 0.001 µM) | 2470 | 81.2 | 71.9 | 189 | 86.1 | 459 | 117 | 117 | 239 | 391 | 51.5 | 119 | 124 | 303 | 233 | 143 | 262 | 288 | 183
CCN(CC)CCNC(=O)c1c(C)[nH]c(/C=C2\C(=O)Nc3ccc(F)cc32)c1C [sunitinib] + COc1ccc(Cl)c(Nc2nc3ccccc3nc2NS(=O)(=O)c2cccc(NC(=O)C(C)(C)N)c2)c1 [XL147] (first compound 0.4 µM, partner dose 0.8 µM) | 448 | 265 | 142 | 187 | 107 | 172 | 85.3 | 154 | 115 | 34.4 | 153 | 190 | 91.2 | 151 | 87.7 | 141 | 62.6 | 47.8 | 137
C[C@@H](N)c1ccc(C(=O)Nc2ccnc3[nH]ccc23)cc1 + C=CCNC1=C2C[C@@H](C)C[C@H](OC)[C@H](O)[C@@H](C)/C=C(\C)[C@H](OC(N)=O)[C@@H](OC)/C=C\C=C(/C)C(=O)NC(=CC1=O)C2=O [Tanespimycin] (first compound 0.4 µM, partner dose 0.002 µM) | 100 | 94.7 | 173 | 187 | 92 | 87.3 | 134 | 83 | 92.4 | 193 | 114 | 75.5 | 187 | 170 | 40.7 | 60.5 | 85.1 | 171 | 40.7
C[C@@H](N)c1ccc(C(=O)Nc2ccnc3[nH]ccc23)cc1 + CC(=O)O[C@@]12CO[C@@H]1C[C@H](O)[C@@]1(C)C(=O)[C@H](O)C3=C(C)[C@@H](OC(=O)[C@H](O)[C@@H](NC(=O)OC(C)(C)C)c4ccccc4)C[C@@](O)([C@@H](OC(=O)c4ccccc4)[C@H]21)C3(C)C [Docetaxel] (first compound 0.4 µM, partner dose 0.0001 µM) | 130 | 138 | 6440 | 5220 | 94.2 | 393 | 167 | 216 | 258 | 165 | 533 | 250 | 214 | 605 | 197 | 97.1 | 645 | 178 | 168
NC(=O)c1ccc(N(C(N)=O)c2c(F)cccc2F)nc1-c1ccc(F)cc1F + Nc1ncn([C@H]2C[C@H](O)[C@@H](CO)O2)c(=O)n1 [decitabine] (first compound 0.4 µM, partner dose 0.1 µM) | 87.3 | 93.5 | 106 | 73.5 | 73 | 173 | 87.3 | 112 | 105 | 29.6 | 137 | 75.4 | 109 | 110 | 78.7 | 150 | 62.6 | 57.1 | 213
CCN(CC)CCNC(=O)c1c(C)[nH]c(/C=C2\C(=O)Nc3ccc(F)cc32)c1C [sunitinib] + Cc1nc(Nc2ncc(C(=O)Nc3c(C)cccc3Cl)s2)cc(N2CCN(CCO)CC2)n1 [dasatanib] (first compound 0.4 µM, partner dose 0.004 µM) | 297 | 73 | 120 | 118 | 115 | 25.9 | 162 | 52.4 | 102 | 75.8 | 93.5 | 115 | 71.7 | 73.9 | 88.8 | 38.6 | 61.4 | 162 | 99.8
CC1(C)CCC(c2ccc(Cl)cc2)=C(CN2CCN(c3ccc(C(=O)NS(=O)(=O)c4ccc(N[C@H](CCN5CCOCC5)CSc5ccccc5)c(S(=O)(=O)C(F)(F)F)c4)cc3)CC2)C1 + CCN(CC)CCNC(=O)c1c(C)[nH]c(/C=C2\C(=O)Nc3ccc(F)cc32)c1C [sunitinib] (first compound 0.4 µM, partner dose 0.4 µM) | 212 | 102 | 454 | 285 | 622 | 512 | 615 | 585 | 329 | 113 | 563 | 33.8 | 102 | 373 | 215 | 88.1 | 100 | 87.4 | 194
COc1ccc(C2=N[C@@H](c3ccc(Cl)cc3)[C@@H](c3ccc(Cl)cc3)N2C(=O)N2CCNC(=O)C2)c(OC(C)C)c1 [Nutlin-3] + CC(=O)O[C@@]12CO[C@@H]1C[C@H](O)[C@@]1(C)C(=O)[C@H](O)C3=C(C)[C@@H](OC(=O)[C@H](O)[C@@H](NC(=O)OC(C)(C)C)c4ccccc4)C[C@@](O)([C@@H](OC(=O)c4ccccc4)[C@H]21)C3(C)C [Docetaxel] (first compound 0.1 µM, partner dose 0.0001 µM) | 173 | 138 | 1780 | 1920 | 332 | 1430 | 162 | 413 | 162 | 61.9 | 483 | 169 | 178 | 473 | 122 | 193 | 278 | 88 | 40.5
CCN(CC)CCNC(=O)c1c(C)[nH]c(/C=C2\C(=O)Nc3ccc(F)cc32)c1C [sunitinib] + Nc1ccn([C@@H]2O[C@H](CO)[C@@H](O)C2(F)F)c(=O)n1 [gemcitabine] (first compound 0.4 µM, partner dose 0.0004 µM) | 86.6 | 199 | 53 | 226 | 85.8 | 93 | 110 | 161 | 126 | 174 | 50.4 | 43.6 | 109 | 100 | 86.3 | 38.1 | 98.2 | 27.6 | 101
CCCCCCCCc1ccc(CCC(N)(CO)CO)cc1 [fingolimod] + Nc1ccn([C@@H]2O[C@H](CO)[C@@H](O)C2(F)F)c(=O)n1 [gemcitabine] (first compound 2 µM, partner dose 0.0004 µM) | 104 | 172 | 94.8 | 311 | 77.5 | 82.3 | 119 | 112 | 75.4 | 70.5 | 67.5 | 76 | 118 | 73.6 | 230 | 107 | 47.5 | 312 | 89.9
NC(=O)c1ccc(N(C(N)=O)c2c(F)cccc2F)nc1-c1ccc(F)cc1F + C#Cc1cccc(Nc2ncnc3cc(OCCOC)c(OCCOC)cc23)c1 [erlotinib] (first compound 0.4 µM, partner dose 0.8 µM) | 126 | 142 | 148 | 210 | 76 | 155 | 97.2 | 83 | 538 | 58.3 | 110 | 94.3 | 194 | 94.4 | 85.4 | 81.1 | 59.4 | 253 | 128
CCCCCCCCc1ccc(CCC(N)(CO)CO)cc1 [fingolimod] + CN1CCN(c2ccc3nc(-c4c(N)c5c(F)cccc5[nH]c4=O)[nH]c3c2)CC1 [Dovitinib] (first compound 2 µM, partner dose 0.1 µM) | 1730 | 46.8 | 87.8 | 197 | 79.9 | 50.2 | 106 | 83 | 125 | 173 | 70.6 | 162 | 104 | 93.2 | 30.6 | 130 | 99.8 | 188 | 43.4
COc1ccc(C2=N[C@@H](c3ccc(Cl)cc3)[C@@H](c3ccc(Cl)cc3)N2C(=O)N2CCNC(=O)C2)c(OC(C)C)c1 [Nutlin-3] + CC(C)C[C@H](NC(=O)[C@H](Cc1ccccc1)NC(=O)c1cnccn1)B(O)O [Bortezomib] (first compound 0.1 µM, partner dose 0.001 µM) | 96.3 | 195 | 89 | 138 | 96 | 357 | 136 | 118 | 201 | 117 | 92.7 | 193 | 128 | 1090 | 95.9 | 136 | 209 | 140 | 40.3
CC(=O)O[C@@]12CO[C@@H]1C[C@H](O)[C@@]1(C)C(=O)[C@H](O)C3=C(C)[C@@H](OC(=O)[C@H](O)[C@@H](NC(=O)OC(C)(C)C)c4ccccc4)C[C@@](O)([C@@H](OC(=O)c4ccccc4)[C@H]21)C3(C)C [Docetaxel] + COCC[n+]1c2c(n(Cc3cnccn3)c1C)C(=O)c1ccccc1C2=O [YM155] (first compound 0.0001 µM, partner dose 0.0004 µM) | 364 | 102 | 4110 | 1960 | 85.3 | 220 | 148 | 374 | 228 | 81.2 | 311 | 382 | 219 | 583 | 329 | 55.3 | 348 | 334 | 63.7
C[C@]1(O)C[C@@H](c2nc(-c3ccc4ccc(-c5ccccc5)nc4c3)c3c(N)nccn32)C1 + CC(=O)O[C@@]12CO[C@@H]1C[C@H](O)[C@@]1(C)C(=O)[C@H](O)C3=C(C)[C@@H](OC(=O)[C@H](O)[C@@H](NC(=O)OC(C)(C)C)c4ccccc4)C[C@@](O)([C@@H](OC(=O)c4ccccc4)[C@H]21)C3(C)C [Docetaxel] (first compound 0.4 µM, partner dose 0.0001 µM) | 811 | 184 | 7670 | 5230 | 101 | 397 | 117 | 169 | 165 | 173 | 204 | 478 | 188 | 684 | 291 | 209 | 414 | 145 | 311

Part of the list above, limited to cleaved PARP positive nuclei fraction (COLO829) [%], cleaved PARP positive nuclei fraction (CBRC008) [%] and cleaved PARP positive nuclei fraction (MEL-HO) [%].
SMILES,cleaved PARP positive nuclei fraction (COLO829) [%],cleaved PARP positive nuclei fraction (CBRC008) [%],cleaved PARP positive nuclei fraction (MEL-HO) [%]
"COc1ccc(C2=N[C@@H](c3ccc(Cl)cc3)[C@@H](c3ccc(Cl)cc3)N2C(=O)N2CCNC(=O)C2)c(OC(C)C)c1 [Nutlin-3] + CC(=O)O[C@@]12CO[C@@H]1C[C@H](O)[C@@]1(C)C(=O)[C@H](O)C3=C(C)[C@@H](OC(=O)[C@H](O)[C@@H](NC(=O)OC(C)(C)C)c4ccccc4)C[C@@](O)([C@@H](OC(=O)c4ccccc4)[C@H]21)C3(C)C [Docetaxel] (first compound 0.1 µM, partner dose 0.0001 µM)",178,1430,40.5
"CCN(CC)CCNC(=O)c1c(C)[nH]c(/C=C2\C(=O)Nc3ccc(F)cc32)c1C [sunitinib] + Nc1ccn([C@@H]2O[C@H](CO)[C@@H](O)C2(F)F)c(=O)n1 [gemcitabine] (first compound 0.4 µM, partner dose 0.0004 µM)",109,93,101

Source: the supplement of paper PMC4604168 (melanoma cell lines)
